Measured values reported in PubChem BioAssay AID2685 (National Center for Advancing Translational Sciences (NCATS), 2010).
The whole screen tested about 320,000 compounds, of which about 2,100 (0.66%) were called active. The inconclusive results got no clear call from the source; some entries with a clear call stand among them for comparison. The call rests on the fitted dose curve; in most records, active means well fitted inhibition curve with a large enough effect in the signal ratio, with a control signal flat (not every such curve was filed as active); inconclusive means small, poorly fitted or top-dose-only effect, or effect the other way, or a change in a side signal; inactive means flat fitted curve, though single readings scatter; the % refers to the signal ratio. Where the call is inconclusive, the potency comes from a doubtful curve fit.

Assay: qHTS Assay for Lipid Storage Modulators in Drosophila S3 Cells
Settings: BODIPY lipid droplet fluorescence, 18-24 h, cells fed with added oleic acid; lipid storage change, negative = inhibition: at 46.1 µM (top of the series) unless noted
In short: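 Laser-scanning cytometry quantifies lipid droplet accumulation (500–530 nm total intensity; droplet/cell object ratio) in oleic acid-fed (400 uM added) Drosophila S3 cells treated with a concentration series. 20 uM Triacsin C defined 100% inhibition.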
On the % scale 0 is the no-effect control and ±100 the full control effect; potency means the concentration at half of the fitted maximal effect.

| Structure (SMILES) | lipid storage change, negative = inhibition | Potency |
| --- | --- | --- |
| COc1cc(NS(=O)(=O)c2cn(C)cn2)cc(OC)c1 | inconclusive: 24.5% |  |
| COc1ccc2c(CC(=O)Nc3ccc(N4CCOCC4)cc3)coc2c1 | inconclusive: 32.7% |  |
| Cc1ccc(CNC(=O)CCS(=O)(=O)c2ccc3nc(C)sc3c2)cc1 | inconclusive: 4.74% |  |
| O=C(CCn1c(=O)oc2ccccc21)N1CCOCC1 | inconclusive: -5.75% |  |
| Cc1cccc(NC(=S)NN2CCN(C)CC2)c1 |  | inconclusive: 2.31 µM [falling, partial curve] |
| COc1ccc(-n2nc([N+](=O)[O-])c(=NCCc3ccc(OC)c(OC)c3)n2O)cc1 |  | active: 0.82 µM |
| N/C(Cc1ccc([N+](=O)[O-])cc1)=N\OC(=O)COc1cccc2ccccc12 | inconclusive: -55.5% |  |
| COc1ccc(NC(=O)CSc2nnc(Cc3ccc(C)cc3)c(=O)n2N)cc1OC | inconclusive: -36.5% |  |
| COc1cc(NC(=O)CN2C(=O)c3ccccc3S2(=O)=O)cc(OC)c1 |  | inconclusive: 0.58 µM [activator, full curve, poor fit] |
| CCCOc1ccc(N2CC(C(=O)Nc3ccccn3)CC2=O)cc1 (stereo not given) | inconclusive: 35.8% |  |
| COC(=O)C1Cc2c([nH]c3ccccc23)C(C)N1 (stereo not given) |  | inconclusive: 20.6 µM [rising, single point] |
| O=C1c2cccc3cc(Br)cc(c23)C(=O)N1Nc1ccc(Br)cc1 |  | inconclusive: 8.2 µM [activator, partial curve, poor fit] |
| CCC1CCCCN1C(=O)COc1ccc(S(=O)(=O)N2CCOCC2)cc1Cl (stereo not given) | inconclusive: -34.7% |  |
| Cc1ccc(/C=C(\NC(=O)c2ccccc2)C(=O)N2CCCC2C(=O)O)cc1 (stereo not given) |  | inconclusive: 0.651 µM [cytotoxic, full curve] |
| CCS(=O)(=O)Nc1cccc(-c2ccc3nnc(-c4cccnc4)n3n2)c1 |  | active: 5.8 µM |
| O=C(Nc1nccs1)C1CC(=O)N(c2ccc(Cl)cc2)C1 (stereo not given) | inconclusive: 2.62% |  |
| Cc1ccccc1C(=O)NC(=S)Nc1ccc(Cc2ccncc2)cc1 |  | inconclusive: 8.2 µM [activator, partial curve, poor fit] |
| O=C(NNC(=O)c1cccc(-n2cccc2)c1)c1ccc(F)cc1 | inconclusive: 34% |  |
| OC(COCc1ccccc1)CN1CCN(Cc2ccc3c(c2)OCO3)CC1 (stereo not given) | inconclusive: -35.1% [cytotoxic] |  |
| Cc1ccc(S(=O)(=O)N2CC(=O)NC(=O)C2)cc1 |  | inconclusive: 6.51 µM [falling, partial curve, poor fit] |
| CC1CC(C)CN(C(=O)c2ccccc2Nc2ccc(SC(F)F)cc2)C1 (stereo not given) | inconclusive: 34.7% |  |
| COc1ccc(/C=N/NC(=S)Nc2ccccc2)cc1 |  | inconclusive: 0.0058 µM [falling, full curve, poor fit] |
| COc1ccccc1Nc1nc2ccccc2[nH]1 | inconclusive: 12.7% |  |
| CCc1ccc(N2CC(C(=O)Nc3ccc4c(c3)OCO4)CC2=O)cc1 (stereo not given) |  | inconclusive: 0.058 µM [activator, full curve, poor fit] |
| CCOC(=O)CSc1nnc(-c2ccc([N+](=O)[O-])cc2)o1 | inconclusive: -8.66% |  |
| S=C(NCc1ccco1)N/N=C/c1cccnc1 | inconclusive: 12.7% |  |
| Cc1ccc(S(=O)(=O)N(C)CC(=O)Nc2ccc3c(c2)OCO3)cc1 |  | inconclusive: 23.1 µM [activator, partial curve] |

| Structure (SMILES) | lipid storage change, negative = inhibition | Potency |
| --- | --- | --- |
| C/C(CCc1ccccc1)=N\NC(=S)NCCc1ccccc1 |  | inconclusive: 18.4 µM [falling, single point] |
| CCCC(=O)NC(c1ccc(OC)c(OC)c1)c1c(O)ccc2ccccc12 (stereo not given) | inconclusive: 5.5% |  |
| Cc1nc(N(C)C)c2sc(=S)n(C)c2n1 | inconclusive: -2.15% [at 9.22 µM] |  |
| CCCCCn1c(=O)c2ccccc2n2c(=S)[nH]nc12 | inconclusive: -10.4% |  |
| O=C(Cc1n[nH]c(=O)[nH]c1=O)N/N=C/c1ccccc1 | inconclusive: -6.46% |  |
| CCNC(=O)C1CC(=O)N(c2ccc(Br)cc2)C1 (stereo not given) | inconclusive: 14.9% |  |
| Cc1cc(NC(=O)c2ccccc2)ccc1NC(=O)Cc1ccccc1 | inconclusive: 15.6% |  |
| NS(=O)(=O)c1ccc(CCNC(=O)Cc2ccc(Cl)cc2)cc1 | inconclusive: -49.3% |  |
| COc1ccc(Cn2c(=O)[nH]c3cc(C(=O)NCCCN4CCCC4=O)ccc3c2=O)cc1 |  | inconclusive: 18.4 µM [activator, single point] |
| C/C(=N/NC(=O)c1ccncc1)c1ccc(NC(=O)c2ccccc2)cc1 | inconclusive: -15.8% |  |
| Cc1ccccc1CC(=O)N1CCCC1 | inconclusive: 2.7% |  |
| COc1ccc(/C=C2\SC(N)=NC2=O)cc1Br |  | inconclusive: 29.1 µM [falling, single point] |
| O=[N+]([O-])c1ccccc1CN1CCN(Cc2ccccn2)CC1 | inconclusive: 4.72% |  |
| Cc1ccc(C)c(NC(=O)Cn2nnc(C(=O)Nc3c(C)cccc3C)c2N)c1 | inconclusive: 19.7% |  |
| CC1CCCN(C(=O)CCc2nnc(-c3ccc4c(c3)OCO4)o2)C1 (stereo not given) | inconclusive: -0.445% |  |
| CCOC(=O)C1=C(C)N=C(SC)N(C)C1c1ccccc1 (stereo not given) |  | inconclusive: 0.366 µM [falling, full curve] |
| COc1ccc(NC(=O)CSc2nnc(-c3ccncc3)o2)c(OC)c1 |  | inconclusive: 0.0041 µM [activator, full curve, poor fit] |
| Cc1ccc(S(=O)(=O)N2CCN(C(=O)NCc3ccc(F)cc3)CC2)c(C)c1 | inconclusive: 54.6% |  |
| CCOc1ccc(OCc2cccc(C(=O)N3CCCCCC3)c2)cc1 | inconclusive: 22% |  |
| Cc1ccc(NC2CCCN(C(=O)CN3C(=O)CSC3=O)C2)cc1C (stereo not given) | inconclusive: -20.3% |  |
| CC(Oc1ccc(Cl)cc1Cl)c1ccnc2nc(N3CCOCC3)nn12 (stereo not given) | inconclusive: 99% |  |
| COc1ccc(NC(=O)CSCC(=O)Nc2sccc2C#N)cc1 |  | inconclusive: 6.51 µM [activator, partial curve] |
| CCCc1cc(=O)[nH]c(SCC(=O)NCCC2=CCCCC2)n1 | inconclusive: 7.7% |  |
| COc1ccc(-n2c(=S)[nH]c3cc(C(=O)Nc4ccccc4OC)ccc3c2=O)c(OC)c1 | inconclusive: -73.3% |  |
| CCOC(=O)C(C)n1ncn2cccc2c1=O (stereo not given) | inconclusive: 2% |  |
| O=C(/C=C/Nc1ccccc1)c1ccc(Oc2ncccn2)cc1 | inconclusive: 11.9% |  |
| COc1ccc(CNc2nc3ccccc3n2C)c(OC)c1 | inactive |  |

| Structure (SMILES) | lipid storage change, negative = inhibition | Potency |
| --- | --- | --- |
| COC(=O)/C=C(\C)NC(=O)c1ccccc1Cl | inconclusive: -0.776% |  |
| Cc1nn(CC(=O)OCC(=O)Nc2ccccc2[N+](=O)[O-])c(C)c1[N+](=O)[O-] | inconclusive: -11.8% |  |
| O=C(c1ccccc1F)N1C(=O)c2cccc3cccc1c23 | inconclusive: 19.7% |  |
| CN(C)C1(CNC(=O)C2CCN(S(=O)(=O)c3cccc(C(F)(F)F)c3)CC2)CCCCC1 |  | inconclusive: 29.1 µM [activator, single point] |
| CC(C)c1ccc(N2C=Nc3ccc(C(C)C)cc3C2)cc1 | inconclusive: -23.9% |  |
| N#CCCC(CCC#N)(CCC#N)c1cc[n+](CCc2ccccn2)cc1 | inconclusive: -0.0329% |  |
| CCOC(=O)C1=C(C)N=c2s/c(=C/c3ccc(OCC(=O)O)cc3)c(=O)n2C1c1ccc(OC)cc1OC (stereo not given) |  | active: 11.6 µM |
| O=C(NCCN1CCOCC1)C1CC(=O)N(c2ccc(F)c(Cl)c2)C1 (stereo not given) | inconclusive: -27.1% |  |
| CC(=O)Nc1ccc(S(=O)(=O)NC(C)C(=O)OCCOc2ccc(F)cc2)cc1 (stereo not given) | inconclusive: -87.5% |  |
| O=C(Cc1ccccc1)N/N=C/c1cc(Br)cc(Cl)c1O | inconclusive: 40.1% |  |
| CC12COC3(C(=O)Nc4ccc5ccccc5c4)CC1CCC32C (stereo not given) | inconclusive: 54.4% |  |
| O=C(CSc1nc(-c2ccccc2)cc(=O)[nH]1)NCc1ccc2c(c1)OCO2 | inconclusive: -58.1% |  |
| COc1ccc(C(=O)N(Cc2ccccc2)c2cccc(C)c2)c(OC)c1OC | inconclusive: -52.5% |  |
| O=C(CS(=O)(=O)c1cn(Cc2cccc(F)c2)c2ccccc12)N1CCOCC1 | inconclusive: -17.3% |  |
| CN(C)C(=C(C#N)C#N)N1CCN(c2ccc(Cl)c(Cl)c2)CC1 | inconclusive: -40.1% |  |
| Cc1ccc(NC(=O)C2CCCN2S(=O)(=O)c2cccc3cccnc23)c(C)c1 (stereo not given) | inconclusive: 35.1% |  |
| COc1ccc(C2CC(c3ccc(F)cc3)Nc3nc(N)nn32)cc1 (stereo not given) | inconclusive: 24.9% |  |
| Cc1cc(Br)ccc1NC(=O)CNC(=O)COc1ccccc1C | inconclusive: 36.1% |  |
| CC(C)(C)c1ccc(NC(=O)N2CCCN(c3ccc([N+](=O)[O-])cn3)CC2)cc1 | inconclusive: -26.8% |  |
| COCCN(CC(=O)NCC1CCCO1)C(=O)CCC(=O)Nc1cc(C)on1 (stereo not given) |  | inconclusive: 0.092 µM [falling, full curve, poor fit] |
| Cn1c2ccccc2c(=O)c2cc(C#CC3(O)CCCCC3)ccc21 | inconclusive: -40.7% |  |
| CC1CCN(C(=S)c2ccc(O)cc2)CC1 | inconclusive: 5.02% |  |
| COc1ccc(NC(=O)COc2ccc(-n3cnnn3)cc2)cc1OC |  | inconclusive: 7.31 µM [falling, partial curve] |
| CC(C)N1CCc2c(sc(NC(=O)c3ccc(S(=O)(=O)N(C)CC4CCCO4)cc3)c2C(N)=O)C1 (stereo not given) |  | active: 7.31 µM |
| CC(C)OC(=O)c1cc(NC(=O)c2nn(C)cc2Br)cc(C(=O)OC(C)C)c1 | inconclusive: 22.2% |  |
| O=C(CN1C(=O)NC2NC(=O)NC21)N/N=C/c1ccc(F)cc1 (stereo not given) | inconclusive: 38.6% |  |

Looked up above.
In lipid storage change, negative = inhibition, `COc1ccc(C2CC(c3ccc(F)cc3)Nc3nc(N)nn32)cc1` (stereo not given) shows inconclusive: 24.9%
In Potency, `COCCN(CC(=O)NCC1CCCO1)C(=O)CCC(=O)Nc1cc(C)on1` (stereo not given) shows inconclusive: 0.092 µM [falling, full curve, poor fit]
In lipid storage change, negative = inhibition, `CC(=O)Nc1ccc(S(=O)(=O)NC(C)C(=O)OCCOc2ccc(F)cc2)cc1` (stereo not given) shows inconclusive: -87.5%
